# Source: publication PMC7819943, “Rice protein-binding microarrays: a tool to detect cis-acting elements near promoter regions in rice”
# The other results are listed elsewhere or left out.
# Biological target: T1, OsSMF1 (Oryza sativa, UniProt Q6ZLB0 1-436)
# T1 sequence: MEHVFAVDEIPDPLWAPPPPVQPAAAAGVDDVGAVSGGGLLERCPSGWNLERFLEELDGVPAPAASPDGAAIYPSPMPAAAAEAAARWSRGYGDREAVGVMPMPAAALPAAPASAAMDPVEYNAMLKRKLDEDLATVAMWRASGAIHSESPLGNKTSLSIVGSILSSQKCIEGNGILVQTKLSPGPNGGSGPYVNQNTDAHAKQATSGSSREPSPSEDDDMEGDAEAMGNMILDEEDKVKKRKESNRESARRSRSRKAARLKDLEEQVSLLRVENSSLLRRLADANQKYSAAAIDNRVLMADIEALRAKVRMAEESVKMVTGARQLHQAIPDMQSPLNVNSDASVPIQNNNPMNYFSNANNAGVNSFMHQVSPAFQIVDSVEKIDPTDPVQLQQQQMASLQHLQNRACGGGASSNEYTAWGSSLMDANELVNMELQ
# Test: protein-binding microarray (RPBM); PBS, 2% BSA, 51.3 ng/ul salmon testes DNA, 50 uM zinc acetate, 200 nM TF, 25 C, 1 h; high values mean tight binding
# Conditions: protein: recombinant; tags: N-terminal polyhistidine and DsRed monomer fusion (pET32a); chain copies: 2; label: CyDye5-dUTP incorporated in the synthesized complementary strand; 3' TTTTT single-stranded linker to array surface; dsDNA, one strand shown
# Procedure, shortened: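 Binding signal here means per-feature fluorescence intensity in arbitrary units. The values were read on an Axon 4000B scanner after a custom Agilent array, double-stranded by primer extension with Cy5-dUTP, was incubated with 200 nM protein at 25 °C for 1 h in PBS with 2% BSA, salmon testes DNA and 50 µM zinc acetate, then washed. The proteins were transcription factors with an N-terminal polyhistidine tag and DsRed, expressed in E. coli BL21-CodonPlus and purified on Ni–NTA.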
row,Sequence,binding signal
1,CACATCTACTATCCATTATATGACGCCAATATCTTGTGGTCGGAGTCACCTAGTGCAG,3160 fluorescence intensity (a.u.)
2,GAAAATCTGTGGGAGGGGAGGGGAGGGGACGAGGGGACAGCGGAGTCACCTAGTGCAG,11100 fluorescence intensity (a.u.)
3,TATTCAATGCGCGAGGAGGCGCATCATCCGGTGTCATTGCCGGAGTCACCTAGTGCAG,3330 fluorescence intensity (a.u.)
4,TGCGTGTTTGATGATATACACGTGCGTATATGTCTACCGTCGGAGTCACCTAGTGCAG,3880 fluorescence intensity (a.u.)
5,CATCTCAGCAATAGACTAGATTAATAGTAAACCATCTCAACGGAGTCACCTAGTGCAG,3390 fluorescence intensity (a.u.)
6,GGGGAGGCCGACGAGGAGGGTTGGTGCGGATCCGCCAGCGCGGAGTCACCTAGTGCAG,3330 fluorescence intensity (a.u.)
7,TTAGTCAAAGACTGGTCACCACCCCACTTTGCTTTTGGCGCGGAGTCACCTAGTGCAG,3840 fluorescence intensity (a.u.)
8,GTAGATAGCGATTAGTTATGTCCTGCGTCATCCTTATCATCGGAGTCACCTAGTGCAG,4030 fluorescence intensity (a.u.)
9,CGCCTCGCCATCGACCTCCACGTGGCGGGGTGACGTGTCACGGAGTCACCTAGTGCAG,31900 fluorescence intensity (a.u.)
10,TGATTTGCACATACGTGTCATCAACCATATGGTTTGTGCACGGAGTCACCTAGTGCAG,7880 fluorescence intensity (a.u.)
11,TCGCCACAGATGCTTGGCTCTGACGTGGTGGGTTAAGAGGCGGAGTCACCTAGTGCAG,7740 fluorescence intensity (a.u.)
12,TCCCTACACCGTCGCCGTCAGCCGTTGGACATCTAGATCACGGAGTCACCTAGTGCAG,4990 fluorescence intensity (a.u.)
13,ATTGGGCCGATAAAATGGGCCGCGTGGGCGGTGGAGTCGACGGAGTCACCTAGTGCAG,3290 fluorescence intensity (a.u.)
14,ACTTTTATGTTGCTTGACGGCAGTCATCAACCCAGCAATACGGAGTCACCTAGTGCAG,3720 fluorescence intensity (a.u.)
15,ATATACAATGAAACATTATACCCAAGTCATGATGTGTACACGGAGTCACCTAGTGCAG,5070 fluorescence intensity (a.u.)
16,TTGTTAATATTGTGTCAAAGTATAGTCACCCTCCAAACACCGGAGTCACCTAGTGCAG,4790 fluorescence intensity (a.u.)
17,AAGGTTGATGTGGCAGCCTGACATGTGGGGCCCACGTGGGCGGAGTCACCTAGTGCAG,34100 fluorescence intensity (a.u.)
18,TTGTCCTTGTGAAATGAAATGCTTGTTGAATTTATGGCTGCGGAGTCACCTAGTGCAG,4160 fluorescence intensity (a.u.)
19,GTGTGTGAGTTGCGTGTGCTGTGACAGCTGTCACGGGTTGCGGAGTCACCTAGTGCAG,5730 fluorescence intensity (a.u.)
20,AGAAATATGGTTTCTTCCCCGTCAATACCTCCAGCATCACCGGAGTCACCTAGTGCAG,3280 fluorescence intensity (a.u.)
21,CTCGGCTCGCAGACGCCACGCGATGTCTCTCTTCGTCCGGCGGAGTCACCTAGTGCAG,4990 fluorescence intensity (a.u.)

# As a short view, some entries already given:
row,Sequence,binding signal
5,CATCTCAGCAATAGACTAGATTAATAGTAAACCATCTCAACGGAGTCACCTAGTGCAG,3390 fluorescence intensity (a.u.)
6,GGGGAGGCCGACGAGGAGGGTTGGTGCGGATCCGCCAGCGCGGAGTCACCTAGTGCAG,3330 fluorescence intensity (a.u.)
7,TTAGTCAAAGACTGGTCACCACCCCACTTTGCTTTTGGCGCGGAGTCACCTAGTGCAG,3840 fluorescence intensity (a.u.)
8,GTAGATAGCGATTAGTTATGTCCTGCGTCATCCTTATCATCGGAGTCACCTAGTGCAG,4030 fluorescence intensity (a.u.)

# (cont.)

row,Sequence,binding signal
1,GAAGGGAAAGACGGGGATGAGGCACCGGCGGAGGGGCGCGCGGAGTCACCTAGTGCAG,3170 fluorescence intensity (a.u.)
2,AAGTACGCCTTCGAAGCACGATTACGTAATGGTTGCATTACGGAGTCACCTAGTGCAG,4840 fluorescence intensity (a.u.)
3,TTGCAGCAGAATACTTACCACGACAGAATTTGAGGATCTACGGAGTCACCTAGTGCAG,29500 fluorescence intensity (a.u.)
4,ATATGGTTCGTATGTCCTCAACGCAAAGGCCAGCTTGGCCCGGAGTCACCTAGTGCAG,30300 fluorescence intensity (a.u.)
5,AACGTCGGTTCCCAAACATTTGTTTTCCTTACCAATCGGGCGGAGTCACCTAGTGCAG,3490 fluorescence intensity (a.u.)
6,TTTTCTAACCAGGCGATTGTGCCAGCCCAGCAGTACTACCCGGAGTCACCTAGTGCAG,3420 fluorescence intensity (a.u.)
7,ATACTAGACCATCTTCAGTCATAGGATCCCCATTTTAAAGCGGAGTCACCTAGTGCAG,26500 fluorescence intensity (a.u.)
8,TACCTCCGCGCGCGCCTTGTGTTCGACCCACGTCAACCCACGGAGTCACCTAGTGCAG,5360 fluorescence intensity (a.u.)
9,AAGATCTCCCAGGCCTCGTGTTTTACGTCAACTGGTTGTACGGAGTCACCTAGTGCAG,3380 fluorescence intensity (a.u.)
10,GCCGATACATAAGAGATATCATCATGTCCTGTAGCATTTTCGGAGTCACCTAGTGCAG,3510 fluorescence intensity (a.u.)
11,CTCCATCGCGCGTCTGGATTCTGCGTGCCACGGACAAGTCCGGAGTCACCTAGTGCAG,3690 fluorescence intensity (a.u.)
12,GTTCAGGCAGTCAGGCACTGCAGCGGCCTGTGATACGTGGCGGAGTCACCTAGTGCAG,4210 fluorescence intensity (a.u.)
13,CCAGTAGTGATCAACATGTACACCTCATACCATGTCCTTTCGGAGTCACCTAGTGCAG,6630 fluorescence intensity (a.u.)
14,GAGAAAGGGTGTTGACGTGGCATCCTGACATGTGGGGTCCCGGAGTCACCTAGTGCAG,15100 fluorescence intensity (a.u.)
15,ACACAGATTACGTGTAAATTGCGAGACAAATCTTTTAACCCGGAGTCACCTAGTGCAG,4290 fluorescence intensity (a.u.)
16,CCCGAAGCGGATTCGCGCACGGAAACCCACAGTCGATTCTCGGAGTCACCTAGTGCAG,3590 fluorescence intensity (a.u.)
17,TATATATATATATATATATATATATCGAAGCAAATTCCCACGGAGTCACCTAGTGCAG,3490 fluorescence intensity (a.u.)
18,TTTTACCATGAGGATCCCATGTGTTTCTTTTCCTTGATTTCGGAGTCACCTAGTGCAG,3230 fluorescence intensity (a.u.)
19,ATCGATCTATCGATCCGATTAATAGTGCCATGAAATATCTCGGAGTCACCTAGTGCAG,22700 fluorescence intensity (a.u.)
20,TGAAGTTTATAGGTAGTAGCAAAGTCATCATCAATGTGTGCGGAGTCACCTAGTGCAG,4370 fluorescence intensity (a.u.)
21,GGCTGCTACGGCGTTGGCGCGCGGCTGCCAGCTAGGCACCCGGAGTCACCTAGTGCAG,4960 fluorescence intensity (a.u.)
